Test results from the supplement of paper PMC12889115.
The list shows a part of the results. Values are raw readings; no control value is given beside them.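 In the initial screen, polymyxin B was used at a concentration that permeabilizes Salmonella's outer membrane but not its inner membrane. Maximum growth was set by DMSO wells with or without polymyxin B. Since plates varied, data were ranked per plate, and compounds giving the lowest OD600 advanced as hits.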

System: Salmonella enterica serovar Typhimurium SL1344
Assay: bacterial growth OD600 after 18 h with compound and polymyxin B; higher = more bacterial growth (less inhibition)
Conditions: 50 µM, Mueller-Hinton broth

Compound | bacterial growth OD600 (polymyxin B 1 µg/mL) | bacterial growth OD600 (polymyxin B 0.75 µg/mL)
CN(Cc1ccncn1)C(=O)CC(c1cccc(O)c1)c1ccccc1Cl (stereo not given) | 0.941 | 
CCCCN(C)C(=O)c1nc2ccccn2c1CNCCc1nc2ccccc2n1C | 1.37 | 
CCc1ccc(CN2CCCC(CNC(=O)COc3ccccc3OC)C2)cc1 (stereo not given) | 0.921 | 
Cc1ccsc1C(=O)N(C)CC1CCCN(CCc2ccc(Cl)cc2)C1 (stereo not given) | 0.86 | 
CC(Cc1cc(C(=O)NCc2cccc(Cl)c2)on1)c1ccccc1 (stereo not given) |  | 0.632
COc1ccc(OCC(=O)N2CCCC(Nc3ccc(C)c(C)c3)C2)cc1 (stereo not given) | 0.647 | 
CCOC(=O)CC1CCCCN1Cc1cnc(S(=O)(=O)CC)n1Cc1ccccc1 (stereo not given) |  | 0.916
CCN1CCC(N2CCCC(N3CCN(c4cccc(C(F)(F)F)c4)CC3)C2)CC1 (stereo not given) | 0.927 | 
O=C(N[C@H]1CCCCNC1=O)c1ccc(N2CCC(NC[C@H]3CCc4ccccc4O3)CC2)cc1 |  | 0.877
COc1ccc(OCc2nc(C(=O)NCc3ccncc3)co2)cc1 | 1.01 | 
CN(Cc1ccc(F)cc1)c1ccc(OCC(=O)NCCc2nc(-c3cccnc3)n[nH]2)nn1 |  | 0.896
CC(=O)N1CCCN(c2nc3nonc3nc2N2CCCCCC2)CC1 | 1.12 | 
CCCc1cc(CN(C)C(=O)CC2(c3cccc(C(F)(F)F)c3)CC(=O)N(CC)C2=O)n[nH]1 (stereo not given) |  | 0.005
CCNC(=O)N1CCCC(CCc2ccc(OC)cc2)C1 (stereo not given) |  | 0.871
Cc1cccc(CN2CCC(Oc3ccccc3C(=O)N3CCCC3)CC2)c1 | 1.1 | 
CCCCc1nc(CN2CCC(C(=O)Nc3ccc(-n4cccn4)cc3)CC2)c[nH]1 | 0.943 | 
Cc1ncoc1C(=O)N1CCC(n2nccc2NC(=O)CCOc2ccccc2)CC1 | 0.923 | 
COc1cccc(CN2CCCC3(CCN(C(=O)C(C)(C)C)C3)C2=O)c1OC (stereo not given) | 0.8 | 
C/C=C(\C)CN1CCC(C2CCN(Cc3cccnc3)CC2)C1 (stereo not given) |  | 0.998
O=C(CCC1CCN(C(=O)CCn2cccn2)CC1)Nc1ccc(F)c(Cl)c1 | 0.966 | 
Cc1nnc(-c2cccc(NC(=O)C3CCCCN3C(=O)C3CCCC3)c2)s1 (stereo not given) | 0.901 | 
Cc1nc(N2CCCCCCC2)ncc1C(C)NCc1ccsc1 (stereo not given) | 0.001 | 
Cc1cccc(NC(=O)CCC2CCN(C(=O)C3=NN(C)C(=O)CC3)CC2)c1 | 0.975 | 
CCO[C@H]1[C@H](NC(=O)CC)c2ccccc2C12CCN(C(=O)c1ccc(C#CC(C)(C)O)o1)CC2 |  | 0.858
CN(C)S(=O)(=O)N1CCC(Oc2ccc(C(=O)NCCN3CCCCC3)cc2)CC1 | 1.2 | 
O=C(NCc1cnc(-c2ccccc2)s1)c1coc(CN2CCc3ccccc3C2)n1 | 0.787 | 
CC(C)Cn1cc(C(=O)N2CCCCCC2)c(=O)c(C(=O)N2CCN(c3ccc(Cl)cc3)CC2)c1 |  | 0.81
CSCCC(=O)N1CCc2onc(-c3ccc4c(c3)OCO4)c2C1 |  | 0.904
Cc1nc(N2CCC(C(=O)NCc3ccc(F)c(F)c3)CC2)nc2cc(S(C)(=O)=O)ccc12 |  | 0.799
OCC1(CCc2ccccc2)CCCN(Cc2c[nH]cn2)C1 (stereo not given) |  | 0.942

Reprinted at random: 2 entries already listed
Compound | bacterial growth OD600 (polymyxin B 1 µg/mL) | bacterial growth OD600 (polymyxin B 0.75 µg/mL)
OCC1(CCc2ccccc2)CCCN(Cc2c[nH]cn2)C1 (stereo not given) |  | 0.942
Cc1nc(N2CCCCCCC2)ncc1C(C)NCc1ccsc1 (stereo not given) | 0.001 | 
